What was measured:
[1] = system: Nav1.5; experiment: Patch-clamp (voltage clamp) recording of VGSC current in HEK cells stably expressing Nav1.5
[2] = system: VGSC of SH-SY5Y cells (Nav1.7, Nav1.2, Nav1.3); experiment: Patch-clamp recording of VGSC current in differentiated SH-SY5Y cells; format: cell-based, human
From the text: Furthermore, the inventors focused on the relationship between taste receptors, particularly the sweet or umami receptors containing the T1R3 subunit, which are widely expressed in the brain and nervous system, including the hippocampus and cortex. They used human neuroblastoma cells (SH-SY5Y) that functionally express Nav1.2, Nav1.3, and Nav1.7 (as reported in non-patent literature 8), as well as HEK cells stably expressing Nav1.5 (with endogenous expression of T1R1, T1R2, and T1R3). They observed the effects of taste stimuli on sodium channel activation. By reducing the expression of T1R1 and T1R3 genes using silencing vectors, they confirmed that the effects on sodium channel currents induced by taste stimuli act through taste receptor GPCRs.
The SH-SY5Y cell culture medium was prepared by mixing DMEM (Sigma-Aldrich) and F-12 (Sigma-Aldrich) in equal proportions. To induce neuronal-like differentiation, the medium contained 1% FBS (BioWest), 5% 40 mM L-Glutamine (Fuji Film), and 1% MEM non-essential amino acids (Wako Pure Chemical Industries). During differentiation, SH-SY5Y cells were cultured for at least 5 days with the addition of 10 μM/ml retinoic acid (Fuji Film). In this document, “SH-SY5Y cells” refer to the SH-SY5Y cell line differentiated into neuronal-like cells.

Compound	Hill Slope ([1]; prepulse −70 mV)	Hill Slope ([1]; prepulse −100 mV)	Hill Slope ([2]; prepulse −60 mV)	Hill Slope ([2]; prepulse −80 mV)	Hill Slope ([1]; prepulse −80 mV)	Hill Slope ([1]; prepulse −120 mV)
Aspartame	1.9	4.2				
CC(Oc1ccc(Cl)cc1Cl)C(=O)O (stereo not shown) [dichlorprop, 2-(2,4-dichlorophenoxy) propanoic acid]		1.9	2.5	2.27	1.6	1.7
